These are yes or no findings as the source states them, for the method shown. Some results given as binding are weak or reduced against the parent protein; the word gives no strength.
Biological target: CD47 on the cell membrane surface (CHO-K1-CLDN18.2-CD47 cells, 3T3-CD47 cells, human red blood cells, human T cells and B cells) (human) (UniProt Q08722)
Experiment: indirect ELISA screening with 3T3-CD47 cells as antigen

The chains behind the UniProt entries cited, without tags or fusion partners. Residues count along the entry.
UniProt Q08722, residues 19-323: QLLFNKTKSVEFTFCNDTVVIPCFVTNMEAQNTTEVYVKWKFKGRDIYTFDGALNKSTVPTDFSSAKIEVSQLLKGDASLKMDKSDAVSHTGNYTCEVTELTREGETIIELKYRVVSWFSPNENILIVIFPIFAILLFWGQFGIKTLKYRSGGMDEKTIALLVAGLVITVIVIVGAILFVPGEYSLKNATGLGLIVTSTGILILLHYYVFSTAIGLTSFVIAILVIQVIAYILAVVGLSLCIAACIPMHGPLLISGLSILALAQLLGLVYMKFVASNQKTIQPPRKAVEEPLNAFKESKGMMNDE

B1: 6F7 (antibody, V domains shown)
VH: QVQLQQPGAELVRPGASVKLSCKASGYTFTSYWMNWVKQRPGQGLEWIGMIDPSDSETHNNQMFKDKATLTVDKSSNTAYMHLSSLTSEDSAVYHCARLYRWYFDVWGAGTTVTVSS
VL: NIVMTQSPKSMSMSLGERVTLSCKASEIVGTYVSWFQQKPHQSPKLLIYGASNRYTGVPDRFTGSGSATDFTLTISNVQAEDLADYHCGQSYNFPYTFGGGTKLEIK
notes: Mouse hybridoma antibody; also called anti-CD47 antibody 6F7; monoclonal antibody secreted by hybridoma cell line LT012
In the case of B1, the binding is reported as “binds”.
